Laboratory results: the supplement of paper PMC12819154, “High-throughput peptide-centric local stability assay extends protein–ligand identification to membrane proteins, tissues and bacteria” (Nature Structural & Molecular Biology, 2025)
Some of the results follow. Small differences around the control level are noise.

Protein sequences, listed by entry. Tags and fused reporters are not part of them. Lines headed by an entry give the natural chain unless they say otherwise; changes in a name come on top.
UniProt Q9D0M1: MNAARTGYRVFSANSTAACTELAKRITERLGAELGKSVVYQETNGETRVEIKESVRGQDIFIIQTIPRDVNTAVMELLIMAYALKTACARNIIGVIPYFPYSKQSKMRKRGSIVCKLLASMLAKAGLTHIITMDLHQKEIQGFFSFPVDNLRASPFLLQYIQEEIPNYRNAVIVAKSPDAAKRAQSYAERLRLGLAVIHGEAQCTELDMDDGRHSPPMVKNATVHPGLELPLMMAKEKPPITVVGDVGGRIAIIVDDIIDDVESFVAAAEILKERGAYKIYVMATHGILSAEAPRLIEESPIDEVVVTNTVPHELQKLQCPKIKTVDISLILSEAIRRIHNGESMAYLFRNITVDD
UniProt Q9CX48: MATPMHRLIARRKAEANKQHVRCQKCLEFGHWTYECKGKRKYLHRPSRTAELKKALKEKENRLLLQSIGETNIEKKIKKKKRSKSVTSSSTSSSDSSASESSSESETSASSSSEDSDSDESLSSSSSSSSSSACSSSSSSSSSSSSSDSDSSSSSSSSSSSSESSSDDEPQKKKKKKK
UniProt Q9CZK6: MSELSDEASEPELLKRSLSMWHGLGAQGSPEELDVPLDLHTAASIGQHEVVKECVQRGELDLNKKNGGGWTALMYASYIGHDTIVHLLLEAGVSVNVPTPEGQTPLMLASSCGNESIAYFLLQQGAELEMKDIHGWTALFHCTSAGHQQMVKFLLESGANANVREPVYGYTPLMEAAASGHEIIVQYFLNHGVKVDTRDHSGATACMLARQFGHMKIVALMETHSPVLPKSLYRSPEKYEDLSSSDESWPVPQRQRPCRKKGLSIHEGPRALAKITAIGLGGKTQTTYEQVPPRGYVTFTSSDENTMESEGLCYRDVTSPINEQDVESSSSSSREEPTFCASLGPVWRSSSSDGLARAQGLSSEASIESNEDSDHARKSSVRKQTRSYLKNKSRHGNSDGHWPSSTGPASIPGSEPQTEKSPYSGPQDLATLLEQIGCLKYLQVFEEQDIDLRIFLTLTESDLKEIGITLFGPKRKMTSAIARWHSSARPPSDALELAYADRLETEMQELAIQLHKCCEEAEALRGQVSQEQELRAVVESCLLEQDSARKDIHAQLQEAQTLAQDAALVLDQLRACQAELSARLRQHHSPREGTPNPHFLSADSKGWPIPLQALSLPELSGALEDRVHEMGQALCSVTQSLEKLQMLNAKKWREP
UniProt Q9CRB8: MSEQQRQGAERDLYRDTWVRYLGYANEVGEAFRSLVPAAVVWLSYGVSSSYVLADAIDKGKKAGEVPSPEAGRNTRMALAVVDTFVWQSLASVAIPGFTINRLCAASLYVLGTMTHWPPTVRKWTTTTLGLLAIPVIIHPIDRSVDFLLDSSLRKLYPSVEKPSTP
UniProt Q9CWR2: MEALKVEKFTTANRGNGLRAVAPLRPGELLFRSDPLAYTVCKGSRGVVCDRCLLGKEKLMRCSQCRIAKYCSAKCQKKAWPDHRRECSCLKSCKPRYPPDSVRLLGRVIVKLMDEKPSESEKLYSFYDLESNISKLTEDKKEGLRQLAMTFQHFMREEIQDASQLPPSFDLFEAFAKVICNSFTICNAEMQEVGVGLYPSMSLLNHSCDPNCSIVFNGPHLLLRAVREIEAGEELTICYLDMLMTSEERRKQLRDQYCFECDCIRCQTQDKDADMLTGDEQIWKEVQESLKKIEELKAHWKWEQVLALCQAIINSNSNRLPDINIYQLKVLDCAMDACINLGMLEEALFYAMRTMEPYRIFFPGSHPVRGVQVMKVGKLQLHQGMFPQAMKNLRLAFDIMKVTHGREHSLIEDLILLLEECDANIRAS
UniProt Q9CRD4: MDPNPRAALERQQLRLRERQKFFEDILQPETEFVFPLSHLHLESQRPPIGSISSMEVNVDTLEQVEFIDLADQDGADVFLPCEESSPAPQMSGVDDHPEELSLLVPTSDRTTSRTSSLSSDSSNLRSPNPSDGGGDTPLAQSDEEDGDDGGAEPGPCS
UniProt Q9CXK9: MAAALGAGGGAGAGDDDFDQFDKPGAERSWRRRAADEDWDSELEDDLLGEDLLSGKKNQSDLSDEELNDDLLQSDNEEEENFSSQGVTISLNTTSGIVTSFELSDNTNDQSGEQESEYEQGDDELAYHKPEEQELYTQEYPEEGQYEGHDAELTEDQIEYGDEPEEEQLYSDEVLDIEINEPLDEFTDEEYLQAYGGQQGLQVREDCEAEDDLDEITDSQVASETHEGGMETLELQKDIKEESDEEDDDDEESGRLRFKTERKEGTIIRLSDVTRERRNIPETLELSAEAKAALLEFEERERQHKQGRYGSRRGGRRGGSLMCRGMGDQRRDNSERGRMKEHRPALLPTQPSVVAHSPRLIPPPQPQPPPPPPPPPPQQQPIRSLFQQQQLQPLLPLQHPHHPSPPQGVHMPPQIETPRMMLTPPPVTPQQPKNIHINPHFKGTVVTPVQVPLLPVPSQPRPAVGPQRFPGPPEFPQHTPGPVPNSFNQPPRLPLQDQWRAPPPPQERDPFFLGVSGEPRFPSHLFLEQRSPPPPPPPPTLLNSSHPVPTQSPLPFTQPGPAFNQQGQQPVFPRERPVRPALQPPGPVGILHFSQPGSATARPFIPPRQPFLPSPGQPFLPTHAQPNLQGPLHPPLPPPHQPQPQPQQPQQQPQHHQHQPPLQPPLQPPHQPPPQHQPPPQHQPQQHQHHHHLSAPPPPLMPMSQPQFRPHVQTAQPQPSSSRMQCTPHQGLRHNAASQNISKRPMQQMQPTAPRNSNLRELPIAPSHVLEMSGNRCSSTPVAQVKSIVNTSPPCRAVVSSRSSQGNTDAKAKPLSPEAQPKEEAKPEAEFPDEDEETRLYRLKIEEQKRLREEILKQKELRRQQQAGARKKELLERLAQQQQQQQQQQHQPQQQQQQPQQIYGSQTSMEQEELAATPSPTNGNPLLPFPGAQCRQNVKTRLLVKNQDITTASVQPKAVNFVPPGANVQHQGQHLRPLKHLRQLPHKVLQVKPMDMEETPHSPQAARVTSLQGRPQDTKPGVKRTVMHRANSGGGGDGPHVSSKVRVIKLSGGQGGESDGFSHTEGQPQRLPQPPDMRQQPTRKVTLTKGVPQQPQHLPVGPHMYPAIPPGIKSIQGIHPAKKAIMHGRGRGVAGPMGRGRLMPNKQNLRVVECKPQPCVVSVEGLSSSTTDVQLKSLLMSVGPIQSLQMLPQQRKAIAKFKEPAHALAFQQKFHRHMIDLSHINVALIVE
UniProt Q9CWM4, whole entry: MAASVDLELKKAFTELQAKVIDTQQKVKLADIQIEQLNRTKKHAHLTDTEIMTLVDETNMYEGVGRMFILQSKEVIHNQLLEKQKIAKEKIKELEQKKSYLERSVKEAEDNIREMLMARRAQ
UniProt Q9CR95: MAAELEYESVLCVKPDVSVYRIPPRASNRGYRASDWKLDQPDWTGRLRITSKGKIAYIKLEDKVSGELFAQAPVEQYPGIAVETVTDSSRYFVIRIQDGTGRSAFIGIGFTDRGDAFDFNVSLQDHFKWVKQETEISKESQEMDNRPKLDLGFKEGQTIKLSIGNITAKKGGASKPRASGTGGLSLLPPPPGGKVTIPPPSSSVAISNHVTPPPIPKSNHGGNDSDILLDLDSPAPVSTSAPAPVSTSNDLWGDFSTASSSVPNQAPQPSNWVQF
UniProt Q9CY64: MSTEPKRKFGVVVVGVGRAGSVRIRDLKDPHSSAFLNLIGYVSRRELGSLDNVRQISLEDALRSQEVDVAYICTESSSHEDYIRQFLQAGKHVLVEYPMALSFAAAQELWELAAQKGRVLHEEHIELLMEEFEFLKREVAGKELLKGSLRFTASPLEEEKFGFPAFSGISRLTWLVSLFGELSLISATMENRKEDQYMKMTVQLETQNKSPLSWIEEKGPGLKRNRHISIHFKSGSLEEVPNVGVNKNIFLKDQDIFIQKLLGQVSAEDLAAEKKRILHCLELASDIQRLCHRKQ
UniProt Q9CZE3: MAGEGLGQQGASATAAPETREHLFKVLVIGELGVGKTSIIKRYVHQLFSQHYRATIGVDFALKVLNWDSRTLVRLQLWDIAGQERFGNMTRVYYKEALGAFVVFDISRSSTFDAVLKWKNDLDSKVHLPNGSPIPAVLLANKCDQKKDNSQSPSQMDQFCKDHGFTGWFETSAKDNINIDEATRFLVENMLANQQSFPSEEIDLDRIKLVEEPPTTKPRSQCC
UniProt Q9CX80: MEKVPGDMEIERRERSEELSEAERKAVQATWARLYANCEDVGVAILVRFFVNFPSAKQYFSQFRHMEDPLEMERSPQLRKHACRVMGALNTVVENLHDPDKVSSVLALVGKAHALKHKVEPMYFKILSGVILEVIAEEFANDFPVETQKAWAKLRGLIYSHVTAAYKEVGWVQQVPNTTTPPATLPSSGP
UniProt Q9CZ30, whole entry, looked up: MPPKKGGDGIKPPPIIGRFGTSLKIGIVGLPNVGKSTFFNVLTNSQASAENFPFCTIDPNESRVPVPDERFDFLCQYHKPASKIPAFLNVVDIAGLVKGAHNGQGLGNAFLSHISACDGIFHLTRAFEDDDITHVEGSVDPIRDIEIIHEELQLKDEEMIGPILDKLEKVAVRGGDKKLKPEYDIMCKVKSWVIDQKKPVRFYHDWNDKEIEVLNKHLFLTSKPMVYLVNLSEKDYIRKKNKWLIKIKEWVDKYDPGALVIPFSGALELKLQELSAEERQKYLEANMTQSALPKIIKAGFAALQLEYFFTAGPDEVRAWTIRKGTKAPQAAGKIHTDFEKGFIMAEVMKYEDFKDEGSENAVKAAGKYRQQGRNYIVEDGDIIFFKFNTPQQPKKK
UniProt Q9CR58: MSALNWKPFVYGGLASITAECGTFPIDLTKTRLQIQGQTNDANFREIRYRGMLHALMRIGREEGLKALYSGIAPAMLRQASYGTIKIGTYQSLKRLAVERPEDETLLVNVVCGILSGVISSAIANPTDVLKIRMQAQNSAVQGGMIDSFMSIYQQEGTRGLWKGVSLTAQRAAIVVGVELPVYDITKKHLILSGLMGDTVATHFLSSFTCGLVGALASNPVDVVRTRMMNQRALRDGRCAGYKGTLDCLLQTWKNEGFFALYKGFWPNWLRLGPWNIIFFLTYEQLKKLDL
UniProt Q9CR68: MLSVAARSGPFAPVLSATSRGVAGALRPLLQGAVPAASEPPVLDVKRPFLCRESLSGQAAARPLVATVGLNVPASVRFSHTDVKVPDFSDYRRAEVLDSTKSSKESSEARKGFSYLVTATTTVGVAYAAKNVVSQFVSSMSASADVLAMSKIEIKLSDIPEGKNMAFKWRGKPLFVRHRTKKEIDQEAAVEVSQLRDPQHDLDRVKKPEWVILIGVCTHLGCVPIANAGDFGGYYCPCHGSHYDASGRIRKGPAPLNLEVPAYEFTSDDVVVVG
UniProt Q9CX00, whole entry: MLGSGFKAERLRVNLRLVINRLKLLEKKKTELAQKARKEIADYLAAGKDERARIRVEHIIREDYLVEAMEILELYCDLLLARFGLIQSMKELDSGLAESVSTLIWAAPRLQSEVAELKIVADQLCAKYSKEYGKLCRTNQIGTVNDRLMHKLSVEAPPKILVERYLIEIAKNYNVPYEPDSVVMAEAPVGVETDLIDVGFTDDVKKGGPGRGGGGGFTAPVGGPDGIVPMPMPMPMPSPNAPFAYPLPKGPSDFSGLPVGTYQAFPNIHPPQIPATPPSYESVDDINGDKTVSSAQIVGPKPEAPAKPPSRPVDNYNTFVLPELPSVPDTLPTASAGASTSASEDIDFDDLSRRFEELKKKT
UniProt Q9CZG9: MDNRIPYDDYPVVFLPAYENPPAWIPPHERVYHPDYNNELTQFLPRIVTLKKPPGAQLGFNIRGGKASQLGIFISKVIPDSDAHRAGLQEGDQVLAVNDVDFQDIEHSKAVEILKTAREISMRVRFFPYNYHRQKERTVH
UniProt Q9CYS6: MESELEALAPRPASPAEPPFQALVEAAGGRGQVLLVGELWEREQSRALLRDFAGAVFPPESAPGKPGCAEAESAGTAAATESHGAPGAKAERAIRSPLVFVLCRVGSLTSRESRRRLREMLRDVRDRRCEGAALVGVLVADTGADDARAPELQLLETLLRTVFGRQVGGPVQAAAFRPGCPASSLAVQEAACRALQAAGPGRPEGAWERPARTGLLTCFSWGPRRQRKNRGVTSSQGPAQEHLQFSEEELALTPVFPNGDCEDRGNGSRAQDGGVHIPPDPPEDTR
UniProt Q9CX34: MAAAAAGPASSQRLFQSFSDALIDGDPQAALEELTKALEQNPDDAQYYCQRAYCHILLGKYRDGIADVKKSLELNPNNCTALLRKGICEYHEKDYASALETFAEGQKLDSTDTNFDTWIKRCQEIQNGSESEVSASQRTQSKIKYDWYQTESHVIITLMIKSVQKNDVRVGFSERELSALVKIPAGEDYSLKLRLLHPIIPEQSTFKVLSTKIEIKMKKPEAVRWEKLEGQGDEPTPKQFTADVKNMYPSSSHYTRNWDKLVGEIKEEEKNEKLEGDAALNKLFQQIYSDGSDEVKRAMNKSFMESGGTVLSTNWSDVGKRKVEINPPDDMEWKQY
UniProt Q9D0L1: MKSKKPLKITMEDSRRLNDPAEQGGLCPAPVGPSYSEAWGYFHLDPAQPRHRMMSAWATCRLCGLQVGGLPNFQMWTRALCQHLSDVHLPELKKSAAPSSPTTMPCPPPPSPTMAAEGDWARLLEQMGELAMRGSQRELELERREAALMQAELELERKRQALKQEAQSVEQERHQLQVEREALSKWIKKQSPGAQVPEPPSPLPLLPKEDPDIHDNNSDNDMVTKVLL

Compound: CN[C@@H]1C[C@H]2O[C@@](C)([C@@H]1OC)n1c3ccccc3c3c4c(c5c6ccccc6n2c5c31)C(=O)NC4 [staurosporine]
Experiment: log2 fold change of tryptic peptide abundance, ligand vs vehicle (limited proteolysis) (log2 ratio); higher = more trypsin-susceptible (destabilized)
Conditions: ligand concentration: 20 uM; sample: mouse liver crude lysate; replicate design: treated separately

| Target | log2 fold change |
| --- | --- |
| UniProt Q9D0M1 (peptide sequence: IYVMATHGILSAEAPR, peptide start residue: 280) | 0.3 |
| UniProt Q9CXI3 (peptide sequence: YWLHWGR, peptide start residue: 37) | 0.51 |
| UniProt Q9D0T2 (peptide sequence: CVAFIGQAR, peptide start residue: 96) | 0.0983 |
| UniProt Q9CX48 (peptide sequence: LLLQSIGETNIEKK, peptide start residue: 63) | 0.0147 |
| UniProt Q9CZK6 (peptide sequence: GLSIHEGPR, peptide start residue: 262) | -0.313 |
| UniProt Q9CRB8 (peptide sequence: AGEVPSPEAGR, peptide start residue: 63) | -0.498 |
| UniProt Q9CWR2 (peptide sequence: AVAPLRPGELLFR, peptide start residue: 20) | -0.231 |
| UniProt Q9CRD4 (peptide sequence: TSSLSSDSSNLR, peptide start residue: 115) | -0.188 |
| UniProt Q9CW46 (peptide sequence: LFSHPREPTLGAHGPSR, peptide start residue: 606) | 0.243 |
| UniProt Q9CXK9 (peptide sequence: LPQPPDMR, peptide start residue: 1071) | -0.397 |
| UniProt Q9D113 (peptide sequence: VEADHYQLVYTCK, peptide start residue: 68) | -0.0234 |
| UniProt Q9CWM4 (peptide sequence: IKELEQK, peptide start residue: 91) | -0.532 |
| UniProt Q9CR95 (peptide sequence: LDLGFKEGQTIK, peptide start residue: 149) | -0.152 |
| UniProt Q9CZW5 (peptide sequence: NREPLMPSPQFIK, peptide start residue: 249) | -0.164 |
| UniProt Q9CY64 (peptide sequence: FGVVVVGVGR, peptide start residue: 9) | 0.194 |
| UniProt Q9CXG3 (peptide sequence: IHVDFSQSVAK, peptide start residue: 311) | 0.218 |
| UniProt Q9D061 (peptide sequence: KLDPGWNPQVSEK, peptide start residue: 120) | 0.295 |
| UniProt Q9CZE3 (peptide sequence: RYVHQLFSQHYR, peptide start residue: 42) | 0.557 |

| Target | log2 fold change |
| --- | --- |
| UniProt Q9CX80 (peptide sequence: FFVNFPSAK, peptide start residue: 49) | -0.375 |
| UniProt Q9CWY9 (peptide sequence: QVGSPHWK, peptide start residue: 15) | 0.136 |
| UniProt Q9CZ28 (peptide sequence: GVGAGAIAKK, peptide start residue: 5) | -0.196 |
| UniProt Q9CZ30 (peptide sequence: LKPEYDIMCK, peptide start residue: 179) | 0.176 |
| UniProt Q9CXT6 (peptide sequence: VVAVLQTHQLPGKQPAR, peptide start residue: 138) | 0.0238 |
| UniProt Q9D0F6 (peptide sequence: FISEDRLPHLLLYGPPGTGK, peptide start residue: 46) | -0.581 |
| UniProt Q9CR58 (peptide sequence: GMLHALMR, peptide start residue: 51) | 0.318 |
| UniProt Q9CR68 (peptide sequence: VPDFSDYR, peptide start residue: 85) | -0.185 |
| UniProt Q9CX00 (peptide sequence: RFEELKK, peptide start residue: 150) | 0.165 |
| UniProt Q9CZG9 (peptide sequence: VIPDSDAHR, peptide start residue: 77) | -0.341 |
| UniProt Q9D0J8 (peptide sequence: TAEEEDEADPKRQK, peptide start residue: 81) | -0.813 |
| UniProt Q9CR59 (peptide sequence: LQQQALEAR, peptide start residue: 105) | -0.11 |
| UniProt Q9CYS6 (peptide sequence: AQDGGVHIPPDPPEDTR, peptide start residue: 270) | -0.467 |
| UniProt Q9CX34 (peptide sequence: LFQQIYSDGSDEVKR, peptide start residue: 283) | -0.123 |
| UniProt Q9CXY1 (peptide sequence: LQTEEQAVDSEGDSSLHR, peptide start residue: 4) | -0.13 |
| UniProt Q9CYA6 (peptide sequence: SLPPFIYR, peptide start residue: 308) | 0.18 |
| UniProt Q9D0L1 (peptide sequence: QALKQEAQSVEQER, peptide start residue: 160) | -0.115 |

Single values from the entries so far:
Entry of UniProt Q9CR95 (peptide sequence: LDLGFKEGQTIK, peptide start residue: 149) under log2 fold change: -0.152
Entry of UniProt Q9CRB8 (peptide sequence: AGEVPSPEAGR, peptide start residue: 63) under log2 fold change: -0.498
Entry of UniProt Q9CXY1 (peptide sequence: LQTEEQAVDSEGDSSLHR, peptide start residue: 4) under log2 fold change: -0.13
